Values from PubChem BioAssay AID1159584 (Peter MacCallum Cancer Centre, 2016)
Shown is a random part of about 18,000 reagents tested. Further read-outs or replicates are left out here. Not given: the amount of reagent, the time to read-out.

- Aim: 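Genes that CDH1-null MCF10A cells selectively depend on to survive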 (primary screen)
- System: human MCF10A breast epithelial cells, parental and CDH1-null
- Knock-down reagent: siRNA against human genes
- Read-out: 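Cell viability by CellTiter-Glo ATP luminescence, each line scaled to the mean of mock wells across plates, then CDH1-null over parental ratio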
- Direction: CDH1-null / parental viability ratio: higher = CDH1-null cells survive relatively better than parental; CDH1-null viability vs mock: higher = more viable CDH1-null cells

gene knocked down	CDH1-null / parental viability ratio	CDH1-null viability vs mock (fraction of mock)
ATAD3A	1.25	0.55
TOMM70	1.26	1.08
GNAO1	0.99	0.84
RABIF	1.18	1.04
TUT7	0.92	0.46
ANKRD36B	1.2	1.25
DCAF13	0.9	0.53
PLXDC1	1.43	0.73
FOXQ1	1.11	0.82
C1D	1.05	0.89
UGDH	0.79	0.66
PLPPR2	0.71	0.55
RAB40C	1.1	0.99
CIC	1.17	1.08
MTMR2	1.53	0.95
ACO2	1.12	0.47
PLK4	0.91	0.6
ARID5B	1.05	0.84
OR8K3	1.18	0.6
RPLP2	1.19	0.5
ARHGEF6	0.98	0.92
PNMA8A	0.99	0.77
ZC3H6	0.79	0.9
IL13RA1	1.06	0.74
ART1	1.31	0.94
PRR16	1.18	0.78
ARPP19	0.97	0.92
RNF17	0.72	0.58
MMP16	1.09	0.85
OTP	0.87	0.82
UBE2W	1.17	0.9
PPP1CA	1.43	0.66
TSPY2	0.82	0.46
GAGE5	1.22	0.73
MEMO1	0.83	0.68
RAB3B	0.74	0.57
BCL2L12	1	0.69
GGPS1	0.97	1.12
PHGDH	1.1	0.92
GNB1	0.86	0.66
TNFRSF13B	0.68	0.45
PLAA	1	0.68
ISCU	1.17	0.7
SBSN	0.96	0.88
CHST3	1	0.51
PHKB	0.87	0.77
DERL2	0.88	0.44
SPTBN2	0.93	0.8
TCP11L2	0.82	0.67
SLC16A13	0.86	0.54
CHIC1	1.16	1.02
PCF11	1.18	0.26
NUDT15	1.26	0.78
DCP2	1.26	1.32
CMC1	0.9	0.76
ADI1	1.15	0.92
SPRR2A	1.24	0.97
BAZ1A	1.15	0.94
ZNF280D	0.9	0.86
OR52J3	1.04	0.82
TMEM192	0.96	0.71
OSBPL9	1.1	0.8
CTH	0.89	0.89
ANKRD49	1.15	1
PPP2R3C	1.03	0.8
FAM81A	1	0.86
INO80E	0.83	0.6
SIGLEC7	0.77	0.6
GAS6	1.22	0.61
RTCA	0.86	0.62
ZNF587	1.01	0.84
TIGD2	1.2	1.13
TVP23A	0.94	0.76
STIL	0.8	0.67
TMEM220	1.08	0.7
MED21	1.85	1.15
ERBB4	1.03	1
TAL2	1.14	0.92
FCGR3A	0.76	0.64
PIK3R6	1.29	0.75
KIAA1217	1.43	1.43
KRT33B	0.9	1.13
FAXDC2	1.25	0.8
ZFP64	0.6	0.25
FANCG	0.98	0.98
DUSP12	1.17	0.56
RPS21	1.18	0.26
